Laboratory results reported in patent US9642854B2, “Flavanoid compounds and process for preparation thereof” (Council of Scientific & Industrial Research, priority 2009, dated 2017).
Some entries share one result that the patent states for a list of compounds. Some ranges recur; such a range may be that of the whole group of compounds.

test system: H. pylori; assay: Induction of drug resistance by repeated subculture (10 cycles); format: cell-based, Helicobacter pylori; details: 10 growth cycles at sub-MIC dose; HP001 and ATCC 43504

| Compound | increase in MIC values after repeated exposure |
| --- | --- |
| O=c1cc(-c2ccccc2)oc2cc(OCCCCN3CCCCC3)cc(O)c12 [CPP-3, 5-Hydroxy-2-phenyl-7-(4-piperidin-1-yl-butoxy)-chromen-4-one] | 4-8 fold |
| CN1CCN(CCCCCCOc2cc(O)c3c(=O)cc(-c4ccccc4)oc3c2)CC1 [NMC-1, 5-Hydroxy-7-[6-(4-methyl-piperazin-1-yl)-hexyloxy]-2-phenyl-chromen-4-one] | 4-8 fold |
| CN1CCN(CCCOc2cc(O)c3c(=O)cc(-c4ccccc4)oc3c2)CC1 [NMC-2, 5-Hydroxy-7-[3-(4-methyl-piperazin-1-yl)-propoxy]-2-phenyl-chromen-4-one] | 4-8 fold |
